Source: paper doi:10.1101/2022.02.02.478833 (bioRxiv, 2022)
These are yes or no findings as the source states them, for the method shown.

Biological target: T1, TANGO1 (30-139) from Drosophila melanogaster (Drosophila melanogaster) (UniProt Q9VMA7)
T1 sequence (chain, [U-15N]-enriched): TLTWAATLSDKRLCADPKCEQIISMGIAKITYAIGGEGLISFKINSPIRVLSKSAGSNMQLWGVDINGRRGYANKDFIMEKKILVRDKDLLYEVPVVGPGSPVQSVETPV
Experiment: NMR titration

VPPPVPPRRR (peptide, UniProt Q07889 1149-1158, looked up) [class II PPII helix peptide SOS1 (1149-1158)]
binding: no binding
